{"source": "the supplement of paper PMC8326762", "about": "“A Small Molecule Inhibitor of Pex3–Pex19 Interaction Disrupts Glycosome Biogenesis and Causes Lethality in Trypanosoma brucei” (Frontiers in Cell and Developmental Biology, 2021)", "key": {"[1]": {"system": "Saccharomyces cerevisiae HF7c pdr5Δ", "experiment": "general growth inhibition of yeast HF7c pdr5Δ in -Leu -Trp medium, relative to DMSO; higher = stronger general growth inhibition", "conditions": "100 µM; 24 h"}, "[2]": {"system": "human PEX3-PEX19 interaction (yeast two-hybrid)", "experiment": "growth inhibition of yeast two-hybrid strain reporting HsPex3-HsPex19 interaction, relative to DMSO; higher = stronger inhibition of human Pex3-Pex19 interaction / growth", "conditions": "100 µM; 24 h; 3-aminotriazole 10 mM"}, "[3]": {"system": "T. brucei Pex3-Pex19 interaction (yeast two-hybrid)", "experiment": "growth inhibition of yeast two-hybrid strain reporting TbPex3-TbPex19 interaction, relative to DMSO; higher = stronger inhibition of T. brucei Pex3-Pex19 interaction / growth", "conditions": "100 µM; 24 h"}}, "note": "Counter-ions that a name gives are not always drawn. Some of the results follow. The data scatter; read single values as rough.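 Optical density at 600 nm measured yeast growth. Because the two-hybrid strains grew without histidine, growth required Pex3–Pex19 binding. Trypanosome selectivity meant a compound inhibited the trypanosome-pair strain's growth by more than 65% but the human-pair strain's by less than 65%.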", "data": [{"smiles": "CCC(=O)c1ccc2c(c1)N(CCCN(C)C)c1ccccc1S2", "note": "[Propionylpromazine hydrochloride]", "values": [{"measurement": "general growth inhibition", "setting": "[1]", "result": 39.7, "unit": "%"}, {"measurement": "growth inhibition", "setting": "[2]", "result": 19.7, "unit": "%"}, {"measurement": "growth inhibition", "setting": "[3]", "result": 53.8, "unit": "%"}]}, {"smiles": "CC(O)C(O)[C@H]1CNc2nc(N)[nH]c(=O)c2N1", "note": "(stereo partly drawn) [(6R)-5,6,7,8-Tetrahydro-L-biopterin hydrochloride]", "values": [{"measurement": "general growth inhibition", "setting": "[1]", "result": 53.9, "unit": "%"}, {"measurement": "growth inhibition", "setting": "[2]", "result": 39.8, "unit": "%"}, {"measurement": "growth inhibition", "setting": "[3]", "result": 70.1, "unit": "%"}]}, {"smiles": "Cn1c(=O)c(-c2c(Cl)cccc2Cl)cc2cnc(Nc3ccc(N4CCOCC4)cc3)nc21", "values": [{"measurement": "general growth inhibition", "setting": "[1]", "result": 50.7, "unit": "%"}, {"measurement": "growth inhibition", "setting": "[2]", "result": 45, "unit": "%"}, {"measurement": "growth inhibition", "setting": "[3]", "result": 31.9, "unit": "%"}]}, {"smiles": "CC(=O)O[C@H]1Cc2ccccc2N(C(N)=O)c2ccccc21", "values": [{"measurement": "general growth inhibition", "setting": "[1]", "result": 60.6, "unit": "%"}, {"measurement": "growth inhibition", "setting": "[2]", "result": 45.4, "unit": "%"}, {"measurement": "growth inhibition", "setting": "[3]", "result": 65.7, "unit": "%"}]}, {"smiles": "CC(Cc1ccccc1)Nc1ncnc2c1ncn2C1OC(CO)C(O)C1O", "note": "(stereo not drawn) [R(-)-N6-(2-Phenylisopropyl)adenosine]", "values": [{"measurement": "general growth inhibition", "setting": "[1]", "result": 13.1, "unit": "%"}, {"measurement": "growth inhibition", "setting": "[2]", "result": 10.1, "unit": "%"}, {"measurement": "growth inhibition", "setting": "[3]", "result": 34.2, "unit": "%"}]}, {"smiles": "CCN(CC)CCNC(=O)c1c(C)[nH]c(/C=C2\\C(=O)Nc3ccc(F)cc32)c1C", "note": "[Sunitinib malate]", "values": [{"measurement": "general growth inhibition", "setting": "[1]", "result": 34.2, "unit": "%"}, {"measurement": "growth inhibition", "setting": "[2]", "result": 21.4, "unit": "%"}, {"measurement": "growth inhibition", "setting": "[3]", "result": 61.7, "unit": "%"}]}, {"smiles": "O=c1c(-c2ccc(O)cc2)coc2cc(O)ccc12", "note": "[Daidzein]", "values": [{"measurement": "general growth inhibition", "setting": "[1]", "result": 28.4, "unit": "%"}, {"measurement": "growth inhibition", "setting": "[2]", "result": 40.3, "unit": "%"}, {"measurement": "growth inhibition", "setting": "[3]", "result": 49.7, "unit": "%"}]}, {"smiles": "Cc1cnc(C(=O)NCCc2ccc(S(=O)(=O)NC(=O)NC3CCCCC3)cc2)cn1", "note": "[Glipizide]", "values": [{"measurement": "general growth inhibition", "setting": "[1]", "result": 32.4, "unit": "%"}, {"measurement": "growth inhibition", "setting": "[2]", "result": 22.9, "unit": "%"}, {"measurement": "growth inhibition", "setting": "[3]", "result": 23.4, "unit": "%"}]}, {"smiles": "CC(C)NC[C@H](O)COc1cccc2[nH]ccc12", "note": "[S(-)-Pindolol]", "values": [{"measurement": "general growth inhibition", "setting": "[1]", "result": 27.8, "unit": "%"}, {"measurement": "growth inhibition", "setting": "[2]", "result": 43.9, "unit": "%"}, {"measurement": "growth inhibition", "setting": "[3]", "result": 59.8, "unit": "%"}]}, {"smiles": "Cc1cc(NC(=O)Nc2ccc3c(ccn3C)c2)sn1", "values": [{"measurement": "general growth inhibition", "setting": "[1]", "result": 39.4, "unit": "%"}, {"measurement": "growth inhibition", "setting": "[2]", "result": 43.4, "unit": "%"}, {"measurement": "growth inhibition", "setting": "[3]", "result": 60.8, "unit": "%"}]}, {"smiles": "CCCCOC(=O)NS(=O)(=O)c1sc(CC(C)C)cc1-c1ccc(Cn2c(CC)nc3c(C)cc(C)nc32)cc1", "values": [{"measurement": "general growth inhibition", "setting": "[1]", "result": 43.6, "unit": "%"}, {"measurement": "growth inhibition", "setting": "[2]", "result": 11, "unit": "%"}, {"measurement": "growth inhibition", "setting": "[3]", "result": 48.5, "unit": "%"}]}, {"smiles": "CC(C)C[C@H](NP(=O)(O)O[C@H]1O[C@H](C)[C@@H](O)[C@H](O)[C@@H]1O)C(=O)N[C@@H](Cc1c[nH]c2ccccc12)C(=O)O", "note": "[Phosphoramidon disodium]", "values": [{"measurement": "general growth inhibition", "setting": "[1]", "result": 51.6, "unit": "%"}, {"measurement": "growth inhibition", "setting": "[2]", "result": 50.8, "unit": "%"}, {"measurement": "growth inhibition", "setting": "[3]", "result": 68.2, "unit": "%"}]}, {"smiles": "N=C(N)NCCCCN", "note": "[Agmatine sulfate]", "values": [{"measurement": "general growth inhibition", "setting": "[1]", "result": 47.4, "unit": "%"}, {"measurement": "growth inhibition", "setting": "[2]", "result": 46.6, "unit": "%"}, {"measurement": "growth inhibition", "setting": "[3]", "result": 61.7, "unit": "%"}]}, {"smiles": "Cc1nc2n(c(=O)c1CCN1CCC(c3noc4cc(F)ccc34)CC1)CCCC2O", "note": "(configuration not stated) [Paliperidone]", "values": [{"measurement": "general growth inhibition", "setting": "[1]", "result": 11.4, "unit": "%"}, {"measurement": "growth inhibition", "setting": "[2]", "result": 29.3, "unit": "%"}, {"measurement": "growth inhibition", "setting": "[3]", "result": 53.1, "unit": "%"}]}, {"smiles": "O=C1NCC2(CCN(CCc3ccccc3)CC2)O1", "note": "[Fenspiride hydrochloride]", "values": [{"measurement": "general growth inhibition", "setting": "[1]", "result": 30.7, "unit": "%"}, {"measurement": "growth inhibition", "setting": "[2]", "result": 43.5, "unit": "%"}, {"measurement": "growth inhibition", "setting": "[3]", "result": 62.6, "unit": "%"}]}, {"smiles": "Cc1cccc(-c2[nH]c(C(C)(C)C)nc2-c2ccc3nccnc3c2)n1", "values": [{"measurement": "general growth inhibition", "setting": "[1]", "result": 22.6, "unit": "%"}, {"measurement": "growth inhibition", "setting": "[2]", "result": 34.6, "unit": "%"}, {"measurement": "growth inhibition", "setting": "[3]", "result": 50.6, "unit": "%"}]}, {"smiles": "COc1cccc(C(=O)NCCN2CCN(c3ccc(Cl)cc3)CC2)c1", "values": [{"measurement": "general growth inhibition", "setting": "[1]", "result": 36.8, "unit": "%"}, {"measurement": "growth inhibition", "setting": "[2]", "result": 32.9, "unit": "%"}, {"measurement": "growth inhibition", "setting": "[3]", "result": 58.6, "unit": "%"}]}, {"smiles": "CCCn1c(=O)c2[nH]c(-c3ccc(S(=O)(=O)O)cc3)nc2n(CCC)c1=O", "note": "[1,3-Dipropyl-8-p-sulfophenylxanthine]", "values": [{"measurement": "general growth inhibition", "setting": "[1]", "result": 35.4, "unit": "%"}, {"measurement": "growth inhibition", "setting": "[2]", "result": 45.2, "unit": "%"}, {"measurement": "growth inhibition", "setting": "[3]", "result": 64.1, "unit": "%"}]}, {"smiles": "Nc1nc(Cl)nc2c1ncn2[C@@H]1O[C@H](CO)[C@@H](O)[C@H]1O", "note": "[2-Chloroadenosine]", "values": [{"measurement": "general growth inhibition", "setting": "[1]", "result": 39.2, "unit": "%"}, {"measurement": "growth inhibition", "setting": "[2]", "result": 42.9, "unit": "%"}, {"measurement": "growth inhibition", "setting": "[3]", "result": 55.4, "unit": "%"}]}, {"smiles": "O=C1NC(=O)C(c2ccccc2[N+](=O)[O-])=C1Nc1ccc(O)c(Cl)c1", "values": [{"measurement": "general growth inhibition", "setting": "[1]", "result": 20.5, "unit": "%"}, {"measurement": "growth inhibition", "setting": "[2]", "result": 19.5, "unit": "%"}, {"measurement": "growth inhibition", "setting": "[3]", "result": 42.9, "unit": "%"}]}, {"smiles": "CCCn1c(=O)c2[nH]c(C3CCCC3)nc2n(CCC)c1=O", "note": "[8-Cyclopentyl-1,3-dipropylxanthine]", "values": [{"measurement": "general growth inhibition", "setting": "[1]", "result": 22.8, "unit": "%"}, {"measurement": "growth inhibition", "setting": "[2]", "result": 22.5, "unit": "%"}, {"measurement": "growth inhibition", "setting": "[3]", "result": 39.4, "unit": "%"}]}, {"smiles": "O=C(O)C1=CCCN(CCON=C(c2ccccc2)c2ccccc2)C1", "note": "[NO-711 hydrochloride]", "values": [{"measurement": "general growth inhibition", "setting": "[1]", "result": 5.21, "unit": "%"}, {"measurement": "growth inhibition", "setting": "[2]", "result": 7.63, "unit": "%"}, {"measurement": "growth inhibition", "setting": "[3]", "result": 37.4, "unit": "%"}]}, {"smiles": "O=C(c1ccccc1)c1ccc2n1CCC2C(=O)O", "note": "(configuration not stated) [Ketorolac tris salt]", "values": [{"measurement": "general growth inhibition", "setting": "[1]", "result": 49.5, "unit": "%"}, {"measurement": "growth inhibition", "setting": "[2]", "result": 40.5, "unit": "%"}, {"measurement": "growth inhibition", "setting": "[3]", "result": 58.6, "unit": "%"}]}, {"smiles": "Nc1cc(=O)[nH]c(N)n1", "note": "[2,4-Diamino-6-pyrimidinone]", "values": [{"measurement": "general growth inhibition", "setting": "[1]", "result": 32.1, "unit": "%"}, {"measurement": "growth inhibition", "setting": "[2]", "result": 37.3, "unit": "%"}, {"measurement": "growth inhibition", "setting": "[3]", "result": 56.3, "unit": "%"}]}, {"smiles": "CN(C)CCC(c1ccc(Cl)cc1)c1ccccn1", "note": "(single isomer, unassigned; (+)) [(+)-Chlorpheniramine maleate]", "values": [{"measurement": "general growth inhibition", "setting": "[1]", "result": 48.9, "unit": "%"}, {"measurement": "growth inhibition", "setting": "[2]", "result": 38, "unit": "%"}, {"measurement": "growth inhibition", "setting": "[3]", "result": 63.2, "unit": "%"}]}, {"smiles": "CC[C@H]1OC(=O)[C@H](C)[C@@H](O[C@H]2C[C@@](C)(OC)[C@@H](O)[C@H](C)O2)[C@H](C)[C@@H](O[C@@H]2O[C@H](C)C[C@H](NC)[C@H]2O)[C@](C)(O)C[C@@H](C)CN(C)[C@H](C)[C@@H](O)[C@]1(C)O", "values": [{"measurement": "general growth inhibition", "setting": "[1]", "result": 57.3, "unit": "%"}, {"measurement": "growth inhibition", "setting": "[2]", "result": 29.1, "unit": "%"}, {"measurement": "growth inhibition", "setting": "[3]", "result": 64.7, "unit": "%"}]}, {"smiles": "Cc1ccc(=O)n(-c2ccccc2)c1", "note": "[Pirfenidone]", "values": [{"measurement": "general growth inhibition", "setting": "[1]", "result": 48.7, "unit": "%"}, {"measurement": "growth inhibition", "setting": "[2]", "result": 46.4, "unit": "%"}, {"measurement": "growth inhibition", "setting": "[3]", "result": 67.8, "unit": "%"}]}, {"smiles": "CN1CCN(CCCN2c3ccccc3Sc3ccc(Cl)cc32)CC1", "note": "[Prochlorperazine dimaleate]", "values": [{"measurement": "general growth inhibition", "setting": "[1]", "result": 31.6, "unit": "%"}, {"measurement": "growth inhibition", "setting": "[2]", "result": 27.1, "unit": "%"}, {"measurement": "growth inhibition", "setting": "[3]", "result": 45.1, "unit": "%"}]}, {"smiles": "CC(C)(C)NC(=O)[C@@H]1CN(Cc2cccnc2)CCN1C[C@@H](O)C[C@@H](Cc1ccccc1)C(=O)N[C@H]1c2ccccc2C[C@H]1O", "note": "[Indinavir sulfate salt hydrate]", "values": [{"measurement": "general growth inhibition", "setting": "[1]", "result": 51.6, "unit": "%"}, {"measurement": "growth inhibition", "setting": "[2]", "result": 44.2, "unit": "%"}, {"measurement": "growth inhibition", "setting": "[3]", "result": 56.1, "unit": "%"}]}]}
